B1: UBQLN2 UBA domain (UBQLN2 571-624) (domain or fragment, human, UniProt Q9UHD9 571-624, looked up)
chain: NAPQLPNPEVRFQQQLEQLNAMGFLNREANLQALIATGGDINAAIERLLGSQPS
B2: UBQLN2 248-576 (domain or fragment, human, UniProt Q9UHD9 248-576, looked up)
chain: MRNQDLALSNLESIPGGYNALRRMYTDIQEPMLNAAQEQFGGNPFASVGSSSSSGEGTQPSRTENRDPLPNPWAPPPATQSSATTSTTTSTGSGSGNSSSNATGNTVAAANYVASIFSTPGMQSLLQQITENPQLIQNMLSAPYMRSMMQSLSQNPDLAAQMMLNSPLFTANPQLQEQMRPQLPAFLQQMQNPDTLSAMSNPRAMQALMQIQQGLQTLATEAPGLIPSFTPGVGVGVLGTAIGPVGPVTPIGPIGPIVPFTPIGPIGPIGPTGPAAPPGSTGSGGPTGPTVSSAAPSETTSPTSESGPNQQFIQQMVQALAGANAPQLP
B3: UBQLN2 UBL domain (UBQLN2 1-107) (domain or fragment, human, UniProt Q9UHD9 1-107, looked up)
chain: MAENGESSGPPRPSRGPAAAQGSAAAPAEPKIIKVTVKTPKEKEEFAVPENSSVQQFKEAISKRFKSQTDQLVLIFAGKILKDQDTLIQHGIHDGLTVHLVIKSQNR
B4: UBQLN2 109-576 (domain or fragment, human, UniProt Q9UHD9 109-576, looked up)
chain: QGQSTQPSNAAGTNTTSASTPRSNSTPISTNSNPFGLGSLGGLAGLSSLGLSSTNFSELQSQMQQQLMASPEMMIQIMENPFVQSMLSNPDLMRQLIMANPQMQQLIQRNPEISHLLNNPDIMRQTLEIARNPAMMQEMMRNQDLALSNLESIPGGYNALRRMYTDIQEPMLNAAQEQFGGNPFASVGSSSSSGEGTQPSRTENRDPLPNPWAPPPATQSSATTSTTTSTGSGSGNSSSNATGNTVAAANYVASIFSTPGMQSLLQQITENPQLIQNMLSAPYMRSMMQSLSQNPDLAAQMMLNSPLFTANPQLQEQMRPQLPAFLQQMQNPDTLSAMSNPRAMQALMQIQQGLQTLATEAPGLIPSFTPGVGVGVLGTAIGPVGPVTPIGPIGPIVPFTPIGPIGPIGPTGPAAPPGSTGSGGPTGPTVSSAAPSETTSPTSESGPNQQFIQQMVQALAGANAPQLP

For test [1], the target named is B1. Put plainly: NMR titration.
Test [2] addresses B1. Put plainly: NMR, concentration dependence of chemical shifts.
The target in test [3] is B3. Put plainly: NMR, concentration dependence of chemical shifts.
For a further test, the target named is UBQLN2 UBA L619A (human) (UniProt Q9UHD9). Put plainly: NMR titration.

No constants are given. Whether binding was seen depends on the method and setting. Some results given as binding are weak or reduced against the parent protein; the word gives no strength.

For the molecule “UBQLN2 379-576 (from UniProt Q9UHD9 379-576) (domain or fragment)”, the binding result in test [1] is on record as “binds weakly”. Still for that read-out and setting: the result for “UBQLN2 178-576 (from UniProt Q9UHD9 178-576) (domain or fragment)” reads “binds weakly”. For B1, in test [2], the binding result was “no binding (tested: 400 μM)”. In the case of B2, in test [1], the binding entry was “binds weakly”.

Take B3: the binding result in test [3] is given as “no binding (tested: 400 μM)”. Regarding B4, the binding result (in test [1]; with UBQLN2 UBA L619A (human)) was “binds weakly” in each case.

Values taken from article doi:10.1101/2021.02.22.432116 (bioRxiv, 2021).
